Assay results from US6534503B1 (Lion Bioscience AG, priority 1998, dated 2003).

Experiment: Boc solid-phase peptide synthesis; MBHA resin; DIC/HOBt
Details: whole synthesis, scale of the general procedure 100 mg resin

Ac-Nle-Gln-His-(D)Phe-Arg-(D)Trp-Gly-NH2
crude purity (method not given): approximately 80 to 90% pure
